This assay is described as follows: qHTS Assay to Find Inhibitors of Chronic Active B-Cell Receptor Signaling. The settings on record: ABC-DLBCL IkBa-CBG/CBR reporter, luminescence ratio (green luciferase fused to IkBa over red control in TMD8 lymphoma cells), 4 h. The essentials: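 TMD8 human ABC-DLBCL cells with doxycycline-inducible IκBα–green luciferase fusion and unfused red luciferase, in 0.5% FBS medium; compounds up to 46 uM, 4 h at 37C. Green/red luminescence ratio, filter-overlap corrected, fitted to concentration-response curves.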
Background: In qHTS, concentration-response curves come from the screen itself.

[1] abbreviates: measured here: CBR red luminescence, cell number.
Where [2] appears, read: measured here: IkBa-CBG green luminescence.

This is one part of the list. Shown are side measurements of this screen, not its main read-out; they come without a call. Most of these compounds were active or inconclusive in the main read-out, so they are no random draw. Words in brackets tell the shape of the fitted curve; partial curves, single points and poor fits give uncertain potencies.

For `CCCCOc1ccc(OC(=O)Nc2cc(Cl)ccc2OC)cc1`, under setting [1], the AC50 was 8.91 µM [rising, partial curve, poor fit].

As to `N#CC1=C(N)n2c(s/c(=C\c3ccco3)c2=O)=C(C#N)C1c1ccco1` (configuration not stated), under setting [1], the AC50 is 6.51 µM [falling, single point]. On the same count and under the same terms, the result for `O=C(CN1CCc2ccccc2C1)Nc1ccccc1C(=O)NC1CC1` reads 7.31 µM [rising, single point]. Same read-out and setting: the result for `COc1ccccc1C(=O)O/N=C(\N)c1ccccn1` reads 1 µM [falling, full curve]; that for `CCC(C)(C(=O)NC1CCCC1)N(C)C(=O)c1ccccn1` (configuration not stated), 0.562 µM [falling, full curve, poor fit]; that for `Nc1[nH][nH]c(=O)c1N=Nc1ccc2c(c1)OCO2`, 14.1 µM [falling, single point]. In the case of `COc1ccc(Cc2nnc(NC(=O)Nc3ccc(C)cc3)s2)cc1OC`, the AC50 under setting [1] was 15.8 µM [rising, partial curve, poor fit]. In the case of `CCOC(=O)CC1(CC(=O)OCC)NC(=O)c2c(C)sc(C(=O)OCC)c2N1`, under setting [1], the AC50 was 6.51 µM [falling, single point].

Take `CCOc1nc(N=C(N)N)nc2c(C)cccc12`: the AC50 under setting [1] is 1.41 µM [falling, partial curve, poor fit]. Same read-out and setting: under `CCc1nc2ccc(Cc3ccc4nc(CC)[nH]c4c3)cc2[nH]1` stands 35.5 µM [falling, single point]; under `CCCN=Cc1sc2ccc(OCC)cc2c1O`, 1 µM [rising, full curve, poor fit]; under `FC(F)(F)c1ccc(NCCc2ccccc2)nc1`, 11.2 µM [rising, partial curve, poor fit]. As to `CCOC(=O)c1c(NC(=S)N2CCOCC2)sc2c1CCN(C(=O)OCC)C2`, the AC50 under setting [1] was 22.4 µM [falling, single point]. `Cc1ccc(C(=O)CCC(=O)Nc2ccccc2C)cc1C`: the AC50 under setting [1] was 4.47 µM [falling, partial curve, poor fit]. For the molecule `Cc1cccc(C)c1NC(=O)NNC(=O)c1cc(C(C)(C)C)nn1Cc1ccccc1`, the AC50 under setting [1] was 0.447 µM [falling, full curve, poor fit]. Same read-out and setting: the result for `COc1cc(N2CN=c3s/c(=C\c4ccccn4)c(=O)n3C2)cc(OC)c1OC` reads 2.31 µM [falling, single point]. As to `O=S(=O)(NCCc1csc2nc(-c3ccc(F)cc3)nn12)c1ccc2c(c1)OCCO2`, the AC50 under setting [1] was 25.1 µM [falling, single point] and the AC50 under setting [2] is 12.6 µM [rising, partial curve, poor fit]. Consider `Nc1nonc1-c1nc2ccccc2n1CC(=O)N1CCCCC1`, for which, under setting [1], the AC50 is 0.562 µM [falling, partial curve, poor fit]. With `O=C(NCCC1CCCCN1S(=O)(=O)c1ccc(F)cc1)C(=O)Nc1ccccc1F` (configuration not stated), the AC50 under setting [1] was 6.51 µM [falling, partial curve, poor fit]. For `CSc1nc(C)cc(OCC(=O)N/N=C/c2ccccc2O)n1`, under setting [2], the AC50 is 10.3 µM [falling, partial curve, poor fit]. Consider `Cc1cc(C)nc(NC(=O)Cc2ccc([N+](=O)[O-])cc2)c1`, for which the AC50 under setting [1] is 29.1 µM [rising, partial curve, poor fit]. With `CCCCNC(=O)c1cc(-c2ccc(F)cc2)on1`, the AC50 under setting [1] was 2.59 µM [falling, full curve].

In the case of `CS(=O)(=O)c1cccc(C(=O)Nc2ccc(-c3nc4ccccc4[nH]3)cc2)c1`, under setting [1], the AC50 was 3.16 µM [falling, partial curve]. Same read-out and setting: under `CCCCn1c(SCC(=O)Nc2cc(C)on2)nnc1-c1cccs1` stands 35.5 µM [falling, single point]; under `C=CCNc1nc(C(=O)OCC(=O)NCc2cccc(Cl)c2)cs1`, 23.1 µM [rising, partial curve, poor fit]; under `COc1cc(C)nc(OCCNC(=O)COc2ccc(Cl)cc2Cl)n1`, 23.1 µM [falling, single point].

Consider `CCN1C(=O)[C@H]2[C@H]3CN=C(SCc4ccccc4)N3[C@@](Cc3ccccc3)(C(=O)OC)[C@H]2C1=O`, for which, under setting [1], the AC50 is 25.9 µM [falling, single point]. Turning to `COc1ccccc1NCCC(=O)OCC(=O)Nc1ccccc1Cl`, the AC50 under setting [1] is 6.51 µM [rising, single point]. The same measure, in the same setting: under `COc1ccc(-n2ncc(Cl)c(Cl)c2=O)cc1` stands 3.98 µM [falling, full curve]; under `O=C(NCc1ccccc1)C1=C[C@@H](c2ccc(Br)cc2)C[C@@H](OCCCCO)O1`, 3.98 µM [rising, single point]. Turning to `CC(C)Cn1nc(NC(=O)c2cccs2)c2cc3ccccc3nc21`, the AC50 was 3.98 µM [falling, partial curve, poor fit] under setting [1] and 6.31 µM [rising, full curve] under setting [2].

For the molecule `CC(C)CNS(=O)(=O)c1ccc(CCC(=O)N2CCN(c3ccc(F)cc3)CC2)cc1`, the AC50 under setting [1] is 12.6 µM [falling, single point].

Take `COc1ccc(Nc2nnc(SCC3CCCCO3)s2)cc1` (configuration not stated): under setting [1], the AC50 was 12.6 µM [rising, single point].

On to `CC(=O)c1c(C)[nH]c(C(=O)CSc2nnc(-c3ccco3)n2Cc2ccccc2)c1C`, for which, under setting [1], the AC50 was 0.562 µM [rising, full curve, poor fit]. Same read-out and setting: the result for `CCCOc1ccc(C(=O)NCCC(=O)NCCCC(=O)O)cc1` reads 35.5 µM [rising, single point]. With `N#Cc1nc(-c2ccco2)oc1N1CCc2ccccc2C1`, under setting [1], the AC50 was 11.6 µM [rising, partial curve, poor fit]. On to `Cn1c(-c2sccc2OCc2ccccc2)n[nH]c1=S`, for which the AC50 under setting [1] was 35.5 µM [falling, single point]. The same measure, in the same setting: the result for `O=C(NCCc1ccc(Cl)cc1)C1CCC(=O)N1Cc1ccc(F)cc1` (configuration not stated) reads 0.461 µM [falling, partial curve, poor fit]. With `Cc1ccnc(SCc2ccc([N+](=O)[O-])cc2)n1`, the AC50 under setting [1] is 6.31 µM [rising, single point]. Still for that read-out and setting: the result for `CN=c1scc(-c2cc(OC)ccc2OC)n1/N=C/c1c(C)[nH]c2ccccc12` reads 13 µM [rising, partial curve]. On the same count and under the same terms, under `Cc1ccccc1OCC(=O)N/N=C/c1ccc([N+](=O)[O-])o1` stands 8.2 µM [falling, partial curve, poor fit]; under `CCC1(CC)NC(=O)N(CC(=O)OCC(=O)Nc2ccc(F)c(F)c2F)C1=O`, 11.2 µM [rising, partial curve]. On the same count and under the same terms, under `CCCc1nc2ccccc2c(=O)n1/N=C/c1ccccc1O` stands 5.01 µM [falling, full curve, poor fit]. Consider `Cc1cc(=O)n2[nH]c(COc3ccccc3)nc2n1`, for which, under setting [1], the AC50 is 7.31 µM [falling, partial curve]. For the molecule `Cc1cccc(NC(=O)/C(=C\c2ccc([N+](=O)[O-])o2)NC(=O)c2ccc(Cl)cc2)c1`, the AC50 under setting [1] is 0.58 µM [falling, full curve]. Still for that read-out and setting: under `O=C(CCc1ccccc1)NC(NC(=S)Nc1ccc(Br)cc1)C(Cl)(Cl)Cl` (configuration not stated) stands 29.1 µM [rising, single point]; under `Cc1onc(-c2c(F)cccc2Cl)c1C(=O)OCC(=O)c1c[nH]c2ccccc12`, 35.5 µM [falling, single point]. Same read-out and setting: the result for `O=C(/C=C/c1cccc([N+](=O)[O-])c1)N1CCOCC1` reads 29.1 µM [rising, single point]; that for `COC(=O)c1c(NC(=O)CCCC(=O)O)sc2c1CCCCC2`, 11.2 µM [falling, single point]; that for `OCC1(Cc2ccc(F)cc2)CCCN(CCc2ccccc2)C1` (configuration not stated), 17.8 µM [rising, partial curve, poor fit]. For `Cc1cc(C(=O)COC(=O)CCC(=O)c2ccc3c(c2)OCCO3)c(C)n1Cc1ccco1`, the AC50 under setting [1] was 8.2 µM [rising, partial curve]. `CCOC(=O)c1c(C=O)c(C)n(Cc2ccccc2Cl)c1C`: under setting [1], the AC50 was 32.6 µM [falling, single point].

Turning to `O=c1cc(CNc2ccc(Br)cc2)nc2sccn12`, the AC50 under setting [1] is 0.82 µM [rising, full curve].

As to `COc1cccc(N2C(=O)CC(N3CCN(C(=O)c4ccco4)CC3)C2=O)c1` (configuration not stated), the AC50 under setting [1] was 29.1 µM [rising, single point]. Still for that read-out and setting: under `COc1ccc(S(=O)(=O)N2CCOCC2)cc1NC(=O)COC(=O)C1=COCCO1` stands 25.1 µM [falling, single point]; under `CC(C)CNC(=S)N1CCC(NC(=O)c2ccco2)CC1`, 35.5 µM [rising, single point]. Consider `CCCC[n+]1ccn(C2=C([O-])c3ccccc3C(=O)/C2=N\S(=O)(=O)c2ccccc2)c1`, for which the AC50 under setting [1] is 35.5 µM [falling, single point] and the AC50 under setting [2] was 17.8 µM [rising, partial curve, poor fit]. As for `Cc1ccccc1NC(=O)Cc1cn(C)c2ccccc12`, the concentration at half-maximal activity (AC50) under setting [1] was 7.31 µM [falling, partial curve, poor fit]. With `O=c1c2ccccc2c(=O)n(Cc2ccccc2)n1Cc1ccccc1`, the AC50 under setting [1] is 5.17 µM [falling, partial curve]. The same measure, in the same setting: the result for `CCn1c(SCC(=O)Nc2nc(C)cs2)nnc1-c1ccncc1` reads 0.112 µM [falling, full curve, poor fit].

Regarding `Cc1cc(=O)oc2cc(OCC(=O)Nc3ccccc3C(=O)O)ccc12`, the AC50 under setting [1] is 2.82 µM [falling, full curve]. In the case of `COC(=O)c1cc2occc2n1Cc1c(F)cccc1Cl`, the AC50 under setting [1] was 17.8 µM [rising, partial curve, poor fit]. In the case of `O=C(CSc1nnnn1-c1ccccc1)NC(=O)NCc1ccco1`, the AC50 under setting [1] was 4.61 µM [falling, single point]. With `O=c1c2c(nc3cc(-c4ccc(Cl)cc4)[nH]n13)CCS2`, the AC50 under setting [1] is 0.461 µM [falling, full curve].

Broadly, the AC50 is the concentration giving half of the maximal activity seen.
